In PubChem BioAssay AID2685 (National Center for Advancing Translational Sciences (NCATS), 2010):
This is one part of the list. Further columns of the screen follow, without active or inactive calls. The list favours compounds with an active or inconclusive main result. Words in brackets tell the shape of the fitted curve; partial curves, single points and poor fits give uncertain potencies.

Assay: qHTS Assay for Lipid Storage Modulators in Drosophila S3 Cells;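 for cell number change: cells counted by Cell Tracker Red CMTPX staining in the red channel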
Details: BODIPY lipid droplet fluorescence, 18-24 h; for cell number change: measured here: cell count max response, cells fed with added oleic acid
How it was run: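 Laser-scanning cytometry quantifies lipid droplet accumulation (500–530 nm total intensity; droplet/cell object ratio) in oleic acid-fed (400 uM added) Drosophila S3 cells treated with a concentration series. 20 uM Triacsin C defined 100% inhibition.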

[1] = measured here: lipid fluorescence (Fed channel) AC50, cells fed with added oleic acid
[2] = measured here: cell number channel AC50, cells fed with added oleic acid

SMILES	cell number change [%]	AC50 [1]	AC50 [2]
O=C(NCc1cc([N+](=O)[O-])ccc1O)c1cc(-c2ccncc2)nc2ccccc12	8.65	0.206 µM [rising, full curve, poor fit]	
COc1cc(NC(=O)COc2cccc3c2OC(C)(C)C3)cc(OC)c1OC	-20.2	1.84 µM [falling, partial curve, poor fit]	
Cc1ccc(N(Cc2cc3ccccc3[nH]c2=O)C(=O)c2cccs2)cc1	100		29.1 µM [rising, single point]
O=C(Nc1ccc(N2CCOCC2)cc1)c1ccc(Cl)cc1N1CCCC1=O	-4.23	29.1 µM [rising, single point]	
COc1ccc(-c2nc3ncccn3c2Nc2ccccc2)cc1	3.26		
CC(=O)Oc1ccc2c(=O)c(Oc3ccccc3[N+](=O)[O-])coc2c1	-27.7	0.13 µM [falling, full curve, poor fit]	
COc1ccc(C(=O)N2CCCc3ccccc32)cc1Br	-22.8	20.6 µM [rising, single point]	
COc1ccc2oc(=O)c(C(=O)NCc3ccccc3)cc2c1	8.55	0.411 µM [rising, partial curve, poor fit]	
Cc1ccc(C2C3C(=O)N(c4ccc(C)cc4)C(=O)C3N3CCCN23)cc1 (centres undefined)		0.0103 µM [rising, full curve, poor fit]	
CC(=O)Nc1ccccc1C(=O)N1CC2(C)CC1CC(C)(C)C2 (centres undefined)	-14.7		
O=C(NCc1ccccc1)Nc1cccn(Cc2ccc(Cl)cc2)c1=O	26.3		3.66 µM [rising, full curve, poor fit]
CCOc1ccc2cc(C#N)c(SCC(=O)OC)nc2c1	-12.6		
Cc1ccc(Nc2nnc(SCC(=O)NC(Cc3c[nH]c4ccccc34)C(=O)O)s2)cc1 (centres undefined)	13.1	7.31 µM [rising, single point]	
CCn1c(=O)c(C(=O)NNS(=O)(=O)c2ccc(NC(=O)OC)cc2)c(O)c2ccccc21	11.1		
CCC(C)[C@H](NC(=O)N1CC(=O)Nc2ccccc21)C(=O)NC(C)CCc1ccccc1 (some centres undefined)			1.3 µM [falling, partial curve]
CCCN1CCC(N2CCN(c3cccc(C(F)(F)F)c3)CC2)CC1	-14.4	18.4 µM [falling, single point]	

Looked up by structure from the entries so far:
SMILES	cell number change [%]	AC50 [1]	AC50 [2]
CCn1c(=O)c(C(=O)NNS(=O)(=O)c2ccc(NC(=O)OC)cc2)c(O)c2ccccc21	11.1		
COc1ccc(-c2nc3ncccn3c2Nc2ccccc2)cc1	3.26		

Carrying on.

SMILES	cell number change [%]	AC50 [1]	AC50 [2]
Cc1[nH]n(-c2ccccc2)c(=O)c1/C=N/N1C(=O)c2ccc3c4c(ccc(c24)C1=O)CC3	1.66	13 µM [falling, single point]	
O=C(/C=C/c1nc2ccccc2s1)N1CCCCCC1	9.17		
COC(=O)c1cccc(Oc2cccc(C(F)(F)F)c2)n1			3.66 µM [falling, single point]
CC12CC3(C)CC(C)(C1)CC(C(=O)NCCc1ccc(S(N)(=O)=O)cc1)(C2)C3	50		3.66 µM [rising, full curve]
COC1=CC(=O)OC12CCCCC2	-45.9	16.4 µM [falling, partial curve]	1.46 µM [falling, full curve]
O=C1c2ccccc2NC(c2ccc(-c3cccc(F)c3)o2)N1O (centres undefined)	-38		29.1 µM [falling, single point]
CC(=O)OC(C(=O)NCc1ccco1)c1ccncc1 (centres undefined)	-9.99		
CN(C)c1ncc(S(=O)(=O)c2ccccc2)c(N)n1	140	23.1 µM [rising, partial curve]	29.1 µM [rising, partial curve]
Cc1cc(C(=O)NNCc2ccccc2)no1		6.51 µM [rising, single point]	6.51 µM [rising, single point]
COc1cc(/C=C2\SC(=S)N(NC(=O)c3ccc(O)c(OC)c3)C2=O)ccc1O	-85.2		18.4 µM [falling, single point]
CC1CC(O)C(C)CN1 (centres undefined)	-55.5	0.116 µM [falling, full curve]	0.103 µM [falling, full curve]
O=C(CSc1nc(C2CC2)nc2c1cnn2-c1ccccc1)Nc1c[nH]c(=O)[nH]c1=O	-50.2	18.4 µM [falling, single point]	29.1 µM [falling, single point]
COc1ccc(-c2cc(N)n(S(=O)(=O)c3c(F)c(F)c(F)c(F)c3F)n2)cc1OC	-44	29.1 µM [falling, single point]	16.4 µM [falling, partial curve, poor fit]
CN1CCN(C(=O)c2cc3nc(-c4ccc(F)cc4)cc(C(F)(F)F)n3n2)CC1	11.9		
CCC(Cc1ccccc1)NS(=O)(=O)c1c(C)nc2sccn2c1=O (centres undefined)	13.8		
Cc1cccc(Nc2cnn(C34CC5CC(CC(CC(=O)O)(C5)C3)C4)c(=O)c2Cl)c1	-30	23.1 µM [falling, partial curve]	0.651 µM [falling, full curve, poor fit]
